These results are taken from patent publication US20240352468.

For at least one entry, the source does not settle the construct or the ends of the probe.

For the data set, the system named is NF-kB (recombinant). As to the kind of experiment: EMSA. The conditions noted are these: PS bonds from first to ninth base from 5' end of SEQ:8; 50 ng/uL NF-kB; 0.1 uM hairpins, 10 nM miR-21, TE buffer, room temperature for HCR; free HCR product bands hardly detected; purified recombinant protein; protein details: Cayman Chemical; label: FAM-dT at nucleotide 21 of SEQ:8.

For the sequence “TCAACATCAGTCTGATAAGCTAGGGACTTTCCTAGCTTATCAGACT / TAGCTTATCAGACTGATGTTGAAGTCTGATAAGCTAGGAAAGTCCC / UAGCUUAUCAGACUGAUGUUGA [HCR product of FAM-HP1(16) and HP2(16) initiated by miR-21]”, the binding result was “binds”.
